Reference: US20210130452A1

B1: 04G01 (VHH)
VHH: EVQLVESGGGLVQAGGSQRLSCTASGTIVNIHVMGWYRQAPGKQRELVALIFSGGSADYADSVKGRFTISRDNAKNTVYLEMNSLKAEDTAVYYCAAEIGYYSGGTYYSSEAHWGQGTQVTVSS
B2: 09G10 (VHH)
VHH: EVQLVESGGGLVQAGGSLRLSCAASDSVFTAKAVGWYRQPPGLQREWVAIITSGGKTNYADSSVKGRFTVSVDKVKNTVTLQMNSLKPEDTAVYYCYAQWMGRDYWGQGTQVTVSS
B3: 11A06 (VHH)
VHH: EVQLVESGGGLVQPGESLRLSCKASGFSLDYYALGWFRQAPGKEREGISCITSSDASAYYTDSVKGRFTISRDNSKNTVYLQMNSLKTEDTAIYYCAAALLTCSSYYDAYTYWGQGTQVTVSS
B4: 01A01 (VHH)
VHH: EVQLVESGGGLVQAGGSLRLSCAASGFTFDDYDIGWFRQAPGKEREGVSCFTSSDGRTFYADSVKGRFTVSADNAKNTVYLQMNSLEPEDTAVYFCAAVNTFDESAYAAFACYDVVRWGQGTQVTVSS
B5: 11C08 (VHH)
VHH: EVQLVESGGGLVQAGGSLRLSCAASGVIFRLNAMGWYRAAPGKQRELVAIIVNGGSTNYADSVKGRFTISRDSAKNAVYLQMNSLKPEDTAVYYCYYNIPGDVYWGQGTQVTVSS
B6: 13B03 (VHH)
VHH: EVQLVESGGGSVQAGDSLRLSCAASGRANSINWFGWFRQTPGKEREFVAGIRWSDAYTEYANSVKGRFTISRDNAKNTVDLQMDSLKPEDTAVYYCVLDLSTVRYWGQGTQVTVSS
B7: 02A08 (VHH)
VHH: EVQLVESGGGVVQPGGSLRLSCADSERSFSFNAMGWFRQAPGKEREFVAAISATGDDTYYADSVKGRFAISRDTARNTVYLQMNSLKPEDTAVYYCGARVNFDGTVSYTNDYAYWGQGTQVTVSS
B8: 13B05 (VHH)
VHH: EVQLVESGGRLVQAGGSLRLSCAASGRTFTSYPMGWFRQAPGKEREFVAAISMSGDDTAYTDFVRGRFTISRDDARNTVYLHMTSLKPEDTAVYYCAARTSYDGTYDYIDDYSYWGQGTQVTVSS
B9: 13E02 (VHH)
VHH: EVQLVESGGGLVQAGGSLRLSCAASGRTYDAMGWLRQAPGKEREFVAAISGSGDDTYYADSVKGRFTISKDNAGITMYLQMNSLKPEDTAVYYCATRRGLYYVWDSNDYENWGQGTQVTVSS
B10: 17C01 (VHH)
VHH: B8 VHH with S21P, T58A, T61A
B11: 03C07 (VHH)
VHH: EVQLVESGGGLVQAGGSLRLSCAASGFTFDDYAIGWFRQAPGKEREAVSCFSSSDGSIYYADSVKGRFTISSDNAKNTVYLQMNSLKPEDTAVYYCAGGGGSYYYTQLNYCYDMDYWGKGTQVTVSS
B12: 04B09 (VHH)
VHH: EVQLVESGGGLVQPGGSLRLSCAASGFTLGYYAIGWFRQAPGKEREGVSCDSSSDGDTYYANSVKGRFTISTDNGKNTVYLQMNSLKPEDTAVYYCATCTDWNYDYWGQGTQVTVSS

Target: guinea pig IL-17A (guinea pig)
Assay: binding ELISA

binding, no binding (tested: 250 nM):
B1
B2
B3
B4
B5
B6
B7
B8
B9
B10
B11
B12

Positions count from the first letter of the chain named. These are yes or no findings as the source states them, for the method shown.
